These are yes or no findings as the source states them, for the method shown. For some of these results: In cells and extracts the contact can be indirect. Some binding calls cover weakened binding; strength is not graded here. One block for each substance: values may come before it.
Legend:
[1] = target: NBS1 (in the co-IP with HDAC3) (UniProt O60934); assay: co-IP; co-IP of HDAC3 and NBS1; cells and antibodies not told
GST-TIP60 = GST-TIP60 (UniProt Q92993); assay: pull-down; purified NBS1 incubated with GST-TIP60, GST pull-down, immunoblot with anti-NBS1; both purified
[2] = target: NBS1 (endogenous, wild type, AGS-P cells) (human (endogenous in AGS)) (UniProt O60934); assay: co-IP; endogenous co-immunoprecipitation in AGS-P cells, whole-cell extracts; also after cisplatin (2.5 μM, 6 h)
[3] = target: NBS1 (exogenously expressed, exogenous IP) (UniProt O60934); assay: co-IP; exogenous IP assay of expressed TIP60 and NBS1; cells and tags not told

Chains of the proteins cited; added tags and fusions are not shown.
UniProt O60934: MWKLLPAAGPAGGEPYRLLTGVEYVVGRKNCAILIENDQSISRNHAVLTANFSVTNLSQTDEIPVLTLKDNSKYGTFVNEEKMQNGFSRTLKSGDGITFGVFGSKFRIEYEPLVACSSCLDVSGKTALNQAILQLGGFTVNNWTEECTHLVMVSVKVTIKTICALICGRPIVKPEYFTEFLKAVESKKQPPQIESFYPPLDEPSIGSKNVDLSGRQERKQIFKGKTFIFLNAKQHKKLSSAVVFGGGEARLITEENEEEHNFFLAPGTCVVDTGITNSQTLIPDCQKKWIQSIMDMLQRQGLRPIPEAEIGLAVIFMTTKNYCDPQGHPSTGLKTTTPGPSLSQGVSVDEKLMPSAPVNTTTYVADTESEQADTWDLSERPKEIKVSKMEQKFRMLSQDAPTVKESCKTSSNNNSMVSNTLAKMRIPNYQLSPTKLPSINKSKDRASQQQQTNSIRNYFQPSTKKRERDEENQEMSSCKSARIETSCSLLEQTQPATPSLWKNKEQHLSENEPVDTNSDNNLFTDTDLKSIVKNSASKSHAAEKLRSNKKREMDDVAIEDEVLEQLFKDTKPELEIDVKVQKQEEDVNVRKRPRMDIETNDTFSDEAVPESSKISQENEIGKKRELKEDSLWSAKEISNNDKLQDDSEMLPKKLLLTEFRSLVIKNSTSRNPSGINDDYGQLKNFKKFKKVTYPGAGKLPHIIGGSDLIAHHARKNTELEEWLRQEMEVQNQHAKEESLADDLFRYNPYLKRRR
UniProt Q92993: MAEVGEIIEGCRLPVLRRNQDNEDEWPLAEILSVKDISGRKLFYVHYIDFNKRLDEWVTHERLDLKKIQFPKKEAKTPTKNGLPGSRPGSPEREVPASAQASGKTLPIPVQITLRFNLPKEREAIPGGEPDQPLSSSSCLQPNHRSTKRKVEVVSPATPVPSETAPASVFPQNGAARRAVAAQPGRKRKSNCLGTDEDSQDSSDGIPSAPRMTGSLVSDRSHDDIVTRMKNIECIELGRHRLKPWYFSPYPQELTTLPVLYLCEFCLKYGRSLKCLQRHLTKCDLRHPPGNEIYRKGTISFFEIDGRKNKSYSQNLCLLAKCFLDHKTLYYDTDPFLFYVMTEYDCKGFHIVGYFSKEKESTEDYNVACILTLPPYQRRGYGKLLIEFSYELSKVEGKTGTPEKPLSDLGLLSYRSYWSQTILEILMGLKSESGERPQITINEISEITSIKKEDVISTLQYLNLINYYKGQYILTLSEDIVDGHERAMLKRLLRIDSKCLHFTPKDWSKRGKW
UniProt O15379: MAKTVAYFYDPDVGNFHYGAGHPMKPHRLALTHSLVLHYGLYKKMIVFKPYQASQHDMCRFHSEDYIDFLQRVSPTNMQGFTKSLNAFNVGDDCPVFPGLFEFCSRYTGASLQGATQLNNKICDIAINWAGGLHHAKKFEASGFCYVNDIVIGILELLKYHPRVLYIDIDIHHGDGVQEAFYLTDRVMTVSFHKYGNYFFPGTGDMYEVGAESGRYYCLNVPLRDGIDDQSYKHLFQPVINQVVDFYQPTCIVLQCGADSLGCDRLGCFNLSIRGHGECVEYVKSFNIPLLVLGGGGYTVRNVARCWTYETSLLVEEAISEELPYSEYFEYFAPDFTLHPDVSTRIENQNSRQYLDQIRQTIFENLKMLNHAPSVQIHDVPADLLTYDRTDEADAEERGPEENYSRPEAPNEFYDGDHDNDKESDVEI

binding [1]: binds
Substance: HDAC3 (in the co-IP with NBS1) (from UniProt O15379 1-428) (enzyme)

binding (GST-TIP60): binds
Substance: Purified NBS1 (not lactylated) (from UniProt O60934 1-754)

binding [2]: binds
Substance: TIP60 (endogenous, AGS-P cells) (from UniProt Q92993 1-513) (enzyme)

binding [3]: binds
Substance: TIP60 (exogenously expressed, exogenous IP) (from UniProt Q92993 1-513) (enzyme)

From publication PMC11254748
